Data as given in paper PMC9473341.
Results are given in words; binding and its absence hold for the method and conditions named. Binding seen in cells or lysates may run through a third protein. Some entries that bind do so weakly or less than the wild type.

Sequences of proteins named here, by UniProt entry; tags and fusion partners are left off.
UniProt P10361: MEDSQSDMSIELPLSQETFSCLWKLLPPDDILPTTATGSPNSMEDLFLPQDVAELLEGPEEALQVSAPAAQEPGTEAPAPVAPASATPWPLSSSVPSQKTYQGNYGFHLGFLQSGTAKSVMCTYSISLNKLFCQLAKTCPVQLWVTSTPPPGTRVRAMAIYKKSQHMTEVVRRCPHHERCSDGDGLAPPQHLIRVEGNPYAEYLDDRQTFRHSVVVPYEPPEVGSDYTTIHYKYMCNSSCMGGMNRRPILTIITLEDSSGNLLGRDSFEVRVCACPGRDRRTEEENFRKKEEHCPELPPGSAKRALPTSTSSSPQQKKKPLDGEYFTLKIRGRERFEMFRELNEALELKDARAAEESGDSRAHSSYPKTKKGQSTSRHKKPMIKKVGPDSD
UniProt Q9JK66: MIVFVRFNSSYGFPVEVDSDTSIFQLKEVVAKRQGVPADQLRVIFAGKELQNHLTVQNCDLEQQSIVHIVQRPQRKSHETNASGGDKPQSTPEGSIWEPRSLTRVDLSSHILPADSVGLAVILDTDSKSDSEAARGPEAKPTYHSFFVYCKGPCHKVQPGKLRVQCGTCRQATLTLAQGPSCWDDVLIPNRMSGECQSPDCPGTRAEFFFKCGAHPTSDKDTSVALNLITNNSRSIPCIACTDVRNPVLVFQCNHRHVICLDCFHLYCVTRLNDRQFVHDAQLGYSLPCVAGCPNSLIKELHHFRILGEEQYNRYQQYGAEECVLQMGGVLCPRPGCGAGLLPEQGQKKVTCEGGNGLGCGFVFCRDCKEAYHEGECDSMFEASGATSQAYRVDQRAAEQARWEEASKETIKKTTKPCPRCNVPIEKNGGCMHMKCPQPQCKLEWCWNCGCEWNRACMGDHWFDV

Target: p53 (rat (endogenous in H9C2)) (UniProt P10361)
Test: co-IP; H9C2 cell extract incubated with anti-p53 antibody or control IgG1 antibody at 4°C overnight, Protein G magnetic beads 30 min at 4°C, washed 5 times, immunoblot; cells treated with DOX with or without QSG

Substance: Parkin (from UniProt Q9JK66 1-465)
- binding: binds
